Data source: PubChem BioAssay AID1224826 (NIAID, 2016)
Assay: 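Knock-downs that raise or lower Tnf reporter signal after endotoxin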 (primary screen). Cell system: RAW264.7 G9 macrophages from mouse bearing reporters for p65 (GFP) and the Tnf promoter (mCherry). Knock-down reagent: siRNA pool against mouse genes, 100 nM. Time to read-out: 16 h of LPS stimulation, after 2 days of siRNA transfection. Challenge: bacterial lipopolysaccharide (Salmonella minnesota R595), 10 ng/ml. Read-out: 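Imaged Tnf reporter mCherry in nuclei, minus background, normalised per plate to the median and expressed as robust z-scores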. Direction: Tnf reporter robust z-score: higher = stronger Tnf promoter reporter signal after LPS. Rule for the call: 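a well counts as active at a score of -1.3 or below (Tlr4 knock-down control median) or above 3 (raised signal); controls and wells holding fewer than 50 cells are excluded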. Meaning of the calls: active = Tnf reporter clearly lowered or raised; inactive = no clear change in Tnf reporter.
Shown is a random part of about 17,000 reagents tested. About 1,110 of all reagents (6.6%) count as active. 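Active means lowered or raised reporter signal; replicate intensities are raw and not normalised per plate.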 Not all columns of the deposit are shown.

The first 3 records as a preview:
Limd2 (GeneID 67803)
- Tnf reporter robust z-score: 3.43
- fewer than 50 cells in well: enough cells in well
- outcome: active

Cux1 (GeneID 13047)
- Tnf reporter robust z-score: 1.45
- fewer than 50 cells in well: enough cells in well
- outcome: inactive

Dcdc2a (GeneID 195208)
- Tnf reporter robust z-score: 1.61
- fewer than 50 cells in well: enough cells in well
- outcome: inactive

Main list, from the first entry:
Limd2 (GeneID 67803)
- Tnf reporter robust z-score: 3.43
- fewer than 50 cells in well: enough cells in well
- outcome: active

Cux1 (GeneID 13047)
- Tnf reporter robust z-score: 1.45
- fewer than 50 cells in well: enough cells in well
- outcome: inactive

Dcdc2a (GeneID 195208)
- Tnf reporter robust z-score: 1.61
- fewer than 50 cells in well: enough cells in well
- outcome: inactive

Thbd (GeneID 21824)
- Tnf reporter robust z-score: -0.2
- fewer than 50 cells in well: enough cells in well
- outcome: inactive

Pitpnm2 (GeneID 19679)
- fewer than 50 cells in well: fewer than 50 cells per well; well left out of calls
- outcome: inactive

Trim16 (GeneID 94092)
- Tnf reporter robust z-score: -0.47
- fewer than 50 cells in well: enough cells in well
- outcome: inactive

H2-M11 (GeneID 224754)
- Tnf reporter robust z-score: -0.85
- fewer than 50 cells in well: enough cells in well
- outcome: inactive

Drosha (GeneID 14000)
- fewer than 50 cells in well: fewer than 50 cells per well; well left out of calls
- outcome: inactive

Sh3kbp1 (GeneID 58194)
- Tnf reporter robust z-score: 0.39
- fewer than 50 cells in well: enough cells in well
- outcome: inactive

Cntnap2 (GeneID 66797)
- Tnf reporter robust z-score: -0.43
- fewer than 50 cells in well: enough cells in well
- outcome: inactive

Elavl4 (GeneID 15572)
- Tnf reporter robust z-score: -0.57
- fewer than 50 cells in well: enough cells in well
- outcome: inactive

Asb14 (GeneID 142687)
- Tnf reporter robust z-score: 0.04
- fewer than 50 cells in well: enough cells in well
- outcome: inactive

Dazl (GeneID 13164)
- Tnf reporter robust z-score: 0.89
- fewer than 50 cells in well: enough cells in well
- outcome: inactive

Or51m1 (GeneID 258961)
- Tnf reporter robust z-score: 0.58
- fewer than 50 cells in well: enough cells in well
- outcome: inactive

Fbxo24 (GeneID 71176)
- Tnf reporter robust z-score: -0.47
- fewer than 50 cells in well: enough cells in well
- outcome: inactive

Or5t7 (GeneID 258585)
- Tnf reporter robust z-score: 0.13
- fewer than 50 cells in well: enough cells in well
- outcome: inactive

Zfp668 (GeneID 244219)
- Tnf reporter robust z-score: -1.29
- fewer than 50 cells in well: enough cells in well
- outcome: inactive

Ap2m1 (GeneID 11773)
- Tnf reporter robust z-score: -1.82
- fewer than 50 cells in well: enough cells in well
- outcome: active

Nbl1 (GeneID 17965)
- Tnf reporter robust z-score: -1.29
- fewer than 50 cells in well: enough cells in well
- outcome: inactive

Cnot3 (GeneID 232791)
- Tnf reporter robust z-score: -0.25
- fewer than 50 cells in well: enough cells in well
- outcome: inactive

Or6c76b (GeneID 258252)
- fewer than 50 cells in well: fewer than 50 cells per well; well left out of calls
- outcome: inactive

Slc4a8 (GeneID 59033)
- Tnf reporter robust z-score: -1.34
- fewer than 50 cells in well: enough cells in well
- outcome: active

Fads6 (GeneID 328035)
- Tnf reporter robust z-score: 0.7
- fewer than 50 cells in well: enough cells in well
- outcome: inactive

Alpl (GeneID 11647)
- Tnf reporter robust z-score: -0.09
- fewer than 50 cells in well: enough cells in well
- outcome: inactive

Zfp40 (GeneID 22700)
- Tnf reporter robust z-score: 2.08
- fewer than 50 cells in well: enough cells in well
- outcome: inactive

Erbb3 (GeneID 13867)
- Tnf reporter robust z-score: 0.3
- fewer than 50 cells in well: enough cells in well
- outcome: inactive

Slc27a4 (GeneID 26569)
- Tnf reporter robust z-score: 0.75
- fewer than 50 cells in well: enough cells in well
- outcome: inactive
